Laboratory results from US20230242871A1, “GENERATION OF PRIMORDIAL GERM CELLS AND METHODS OF USING THE SAME” (The Board of Trustees of the Leland Stanfor Junior …, priority 2020, published 2023).

B1: CD92 (protein, UniProt Q8WWI5 2-657, looked up)
Choline transporter-like …: GCCSSASSAAQSSKREWKPLEDRSCTDIPWLLLFILFCIGMGFICGFSIATGAAARLVSGYDSYGNICGQKNTKLEAIPNSGMDHTQRKYVFFLDPCNLDLINRKIKSVALCVAACPRQELKTLSDVQKFAEINGSALCSYNLKPSEYTTSPKSSVLCPKLPVPASAPIPFFHRCAPVNISCYAKFAEALITFVSDNSVLHRLISGVMTSKEIILGLCLLSLVLSMILMVIIRYISRVLVWILTILVILGSLGGTGVLWWLYAKQRRSPKETVTPEQLQIAEDNLRALLIYAISATVFTVILFLIMLVMRKRVALTIALFHVAGKVFIHLPLLVFQPFWTFFALVLFWVYWIMTLLFLGTTGSPVQNEQGFVEFKISGPLQYMWWYHVVGLIWISEFILACQQMTVAGAVVTYYFTRDKRNLPFTPILASVNRLIRYHLGTVAKGSFIITLVKIPRMILMYIHSQLKGKENACARCVLKSCICCLWCLEKCLNYLNQNAYTATAINSTNFCTSAKDAFVILVENALRVATINTVGDFMLFLGKVLIVCSTGLAGIMLLNYQQDYTVWVLPLIIVCLFAFLVAHCFLSIYEMVVDVLFLCFAIDTKYNDGSPGREFYMDKVLMEFVENSRKAMKEAGKGGVADSRELKPMASGASSA
B2: Delta Opioid Receptor (protein, UniProt P41143 1-372, looked up)
Delta-type opioid receptor: MEPAPSAGAELQPPLFANASDAYPSACPSAGANASGPPGARSASSLALAIAITALYSAVCAVGLLGNVLVMFGIVRYTKMKTATNIYIFNLALADALATSTLPFQSAKYLMETWPFGELLCKAVLSIDYYNMFTSIFTLTMMSVDRYIAVCHPVKALDFRTPAKAKLINICIWVLASGVGVPIMVMAVTRPRDGAVVCMLQFPSPSWYWDTVTKICVFLFAFVVPILIITVCYGLMLLRLRSVRLLSGSKEKDRSLRRITRMVLVVVGAFVVCWAPIHIFVIVWTLVDIDRRDPLVVAALHLCIALGYANSSLNPVLYAFLDENFKRCFRQLCRKPCGRPDPSSFSRAREATARERVTACTPSDGPGGGAAA
B3: CD201 (protein, UniProt Q9UNN8 18-238, looked up)
Endothelial protein C receptor: SQDASDGLQRLHMLQISYFRDPYHVWYQGNASLGGHLTHVLEGPDTNTTIIQLQPLQEPESWARTQSGLQSYLLQFHGLVRLVHQERTLAFPLTIRCFLGCELPPEGSRAHVFFEVAVNGSSFVSFRPERALWQADTQVTSGVVTFTLQQLNAYNRTRYELREFLEDTCVQYVQKHISAENTKGSQTSRSYTSLVLGVLVGSFIIAGVAVGIFLCTGGRRC
B4: CD129 (protein, UniProt Q01113 41-521, looked up)
Interleukin-9 receptor: SVTGEGQGPRSRTFTCLTNNILRIDCHWSAPELGQGSSPWLLFTSNQAPGGTHKCILRGSECTVVLPPEAVLVPSDNFTITFHHCMSGREQVSLVDPEYLPRRHVKLDPPSDLQSNISSGHCILTWSISPALEPMTTLLSYELAFKKQEEAWEQAQHRDHIVGVTWLILEAFELDPGFIHEARLRVQMATLEDDVVEEERYTGQWSEWSQPVCFQAPQRQGPLIPPWGWPGNTLVAVSIFLLLTGPTYLLFKLSPRVKRIFYQNVPSPAMFFQPLYSVHNGNFQTWMGAHGAGVLLSQDCAGTPQGALEPCVQEATALLTCGPARPWKSVALEEEQEGPGTRLPGNLSSEDVLPAGCTEWRVQTLAYLPQEDWAPTSLTRPAPPDSEGSRSSSSSSSSNNNNYCALGCYGGWHLSALPGNTQSSGPIPALACGLSCDHQGLETQQGVAWVLAGHCQRPGLHEDLQGMLLPSVLSKARSWTF
B5: CD85h (protein, UniProt Q8N149 24-483, looked up)
Leukocyte immunoglobulin-like …: GHLPKPTLWAEPGSVIIQGSPVTLRCQGSLQAEEYHLYRENKSASWVRRIQEPGKNGQFPIPSITWEHAGRYHCQYYSHNHSSEYSDPLELVVTGAYSKPTLSALPSPVVTSGGNVTLQCVSQVAFDGFILCKEGEDEHPQRLNSHSHARGWSWAIFSVGPVSPSRRWSYRCYAYDSNSPYVWSLPSDLLELLVPGVSKKPSLSVQPGPMVAPGESLTLQCVSDVGYDRFVLYKEGERDFLQRPGWQPQAGLSQANFTLGPVSPSHGGQYRCYSAHNLSSEWSAPSDPLDILITGQFYDRPSLSVQPVPTVAPGKNVTLLCQSRGQFHTFLLTKEGAGHPPLHLRSEHQAQQNQAEFRMGPVTSAHVGTYRCYSSLSSNPYLLSLPSDPLELVVSEAAETLSPSQNKTDSTTTSLGQHPQDYTVENLIRMGVAGLVLVVLGILLFEAQHSQRSLQDAAGR
B6: MRGX2 (protein, UniProt Q96LB1 1-330, looked up)
Mas-related G-protein coupled …: MDPTTPAWGTESTTVNGNDQALLLLCGKETLIPVFLILFIALVGLVGNGFVLWLLGFRMRRNAFSVYVLSLAGADFLFLCFQIINCLVYLSNFFCSISINFPSFFTTVMTCAYLAGLSMLSTVSTERCLSVLWPIWYRCRRPRHLSAVVCVLLWALSLLLSILEGKFCGFLFSDGDSGWCQTFDFITAAWLIFLFMVLCGSSLALLVRILCGSRGLPLTRLYLTILLTVLVFLLCGLPFGIQWFLILWIWKDSDVLFCHIHPVSVVLSSLNSSANPIIYFFVGSFRKQWRLQQPILKLALQRALQDIAEVDHSEGCFRQGTPEMSRSSLV
B7: CD326 (protein, UniProt P16422 24-314, looked up)
Epithelial cell adhesion …: QEECVCENYKLAVNCFVNNNRQCQCTSVGAQNTVICSKLAAKCLVMKAEMNGSKLGRRAKPEGALQNNDGLYDPDCDESGLFKAKQCNGTSMCWCVNTAGVRRTDKDTEITCSERVRTYWIIIELKHKAREKPYDSKSLRTALQKEITTRYQLDPKFITSILYENNVITIDLVQNSSQKTQNDVDIADVAYYFEKDVKGESLFHSKKMDLTVNGEQLDLDPGQTLIYYVDEKAPEFSMQGLKAGVIAVIVVVVIAVVAGIVVLVISRKKRMAKYEKAEIKEMGEMHRELNA
B8: CD255 (protein, UniProt O43508 94-249, looked up)
Tumor necrosis factor ligand …: SAPKGRKTRARRAIAAHYEVHPRPGQDGAQAGVDGTVSGWEEARINSSSPLRYNRQIGEFIVTRAGLYYLYCQVHFDEGKAVYLKLDLLVDGVLALRCLEEFSATAASSLGPQLRLCQVSGLLALRPGSSLRIRTLPWAHLKAAPFLTYFGLFQVH
B9: CD122 (protein, UniProt P14784 27-551, looked up)
Interleukin-2 receptor …: AVNGTSQFTCFYNSRANISCVWSQDGALQDTSCQVHAWPDRRRWNQTCELLPVSQASWACNLILGAPDSQKLTTVDIVTLRVLCREGVRWRVMAIQDFKPFENLRLMAPISLQVVHVETHRCNISWEISQASHYFERHLEFEARTLSPGHTWEEAPLLTLKQKQEWICLETLTPDTQYEFQVRVKPLQGEFTTWSPWSQPLAFRTKPAALGKDTIPWLGHLLVGLSGAFGFIILVYLLINCRNTGPWLKKVLKCNTPDPSKFFSQLSSEHGGDVQKWLSSPFPSSSFSPGGLAPEISPLEVLERDKVTQLLLQQDKVPEPASLSSNHSLTSCFTNQGYFFFHLPDALEIEACQVYFTYDPYSEEDPDEGVAGAPTGSSPQPLQPLSGEDDAYCTFPSRDDLLLFSPSLLGGPSPPSTAPGGSGAGEERMPPSLQERVPRDWDPQPLGPPTPGVPDLVDFQPPPELVLREAGEEVPDAGPREGVSFPWSRPPGQGEFRALNARLPLNTDAYLSLQELQGQDPTHLV
B10: CD20 (protein, UniProt P11836 1-297, looked up)
B-lymphocyte antigen CD20: MTTPRNSVNGTFPAEPMKGPIAMQSGPKPLFRRMSSLVGPTQSFFMRESKTLGAVQIMNGLFHIALGGLLMIPAGIYAPICVTVWYPLWGGIMYIISGSLLAATEKNSRKCLVKGKMIMNSLSLFAAISGMILSIMDILNIKISHFLKMESLNFIRAHTPYINIYNCEPANPSEKNSPSTQYCYSIQSLFLGILSVMLIFAFFQELVIAGIVENEWKRTCSRPKSNIVLLSAEEKKEQTIEIKEEVVGLTETSSQPKNEEDIEIIPIQEEEEEETETNFPEPPQDQESSPIENDSSP
B11: TACSTD2 (protein, UniProt P09758 27-323, looked up)
Tumor-associated calcium …: HTAAQDNCTCPTNKMTVCSPDGPGGRCQCRALGSGMAVDCSTLTSKCLLLKARMSAPKNARTLVRPSEHALVDNDGLYDPDCDPEGRFKARQCNQTSVCWCVNSVGVRRTDKGDLSLRCDELVRTHHILIDLRHRPTAGAFNHSDLDAELRRLFRERYRLHPKFVAAVHYEQPTIQIELRQNTSQKAAGDVDIGDAAYYFERDIKGESLFQGRGGLDLRVRGEPLQVERTLIYYLDEIPPKFSMKRLTAGLIAVIVVVVVALVAGMAVLVITNRRKSGKYKKVEIKELGELRKEPSL
B12: IL-28RA (protein, UniProt Q8IU57 21-520, looked up)
Interferon lambda receptor 1: RPRLAPPQNVTLLSQNFSVYLTWLPGLGNPQDVTYFVAYQSSPTRRRWREVEECAGTKELLCSMMCLKKQDLYNKFKGRVRTVSPSSKSPWVESEYLDYLFEVEPAPPVLVLTQTEEILSANATYQLPPCMPPLDLKYEVAFWKEGAGNKTLFPVTPHGQPVQITLQPAASEHHCLSARTIYTFSVPKYSKFSKPTCFLLEVPEANWAFLVLPSLLILLLVIAAGGVIWKTLMGNPWFQRAKMPRALDFSGHTHPVATFQPSRPESVNDLFLCPQKELTRGVRPTPRVRAPATQQTRWKKDLAEDEEEEDEEDTEDGVSFQPYIEPPSFLGQEHQAPGHSEAGGVDSGRPRAPLVPSEGSSAWDSSDRSWASTVDSSWDRAGSSGYLAEKGPGQGPGGDGHQESLPPPEFSKDSGFLEELPEDNLSSWATWGTLPPEPNLVPGGPPVSLQTLTFCWESSPEEEEEARESEIEDSDAGSWGAESTQRTEDRGRTLGHYMAR

Legend:
Test in all cases: High-throughput cell-surface marker screening (LEGENDScreen), %PE+
Type in all cases: cell-based, human
Conditions in all cases: percentage of cells bound to the PE-conjugated antibody (LEGENDScreen)
[1] = system: undifferentiated hPSC (D0)
[2] = system: D3.5 SOX17-GFP+ PGCs
[3] = system: D3.5 SOX17-GFP- non-PGCs

Row | Molecule | % PE+ in H1 UD [1] | % PE+ in PGCs [2] | % PE+ in non-PGCs [3]
1 | B1 | 95.5% | 0.8537% | 0.8663%
2 | B2 | 0.21% | 0.007076% | 0.005966%
3 | B3 | 96.5% | 0.113% | 0.4119%
4 | B4 | 0.39% | 0% | 0.0005766%
5 | B5 | 0.14% | 0% | 0.0003134%
6 | B6 | 0.2% | 0% | 0.0008284%
7 | B7 | 99.6% | 1% | 0.9527%
8 | B8 | 0.99% | 0.003226% | 0.006777%
9 | B9 | 0.087% | 0.001375% | 1.814E-05%
10 | B10 | 0.041% | 0% | 7.085E-05%
11 | B11 | 17.9% | 0.1081% | 0.2176%
12 | B12 | 0.17% | 0% | 6.926E-05%
